Experimental data: PubChem BioAssay AID1259425 (University of Nebraska Medical Center, 2018)

Assay: 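Compare each knockdown with KSR1 silencing using changes in marker transcripts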 (primary screen)
Cell system: HCT116 human colon cancer cells
Reagent: siRNA pool against human genes, 50 nM siRNA
Measurement: 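After 50 nM siRNA pool, branched-DNA assay measures six marker transcripts per well, minus blank, normalised to the geometric mean of two housekeeping transcripts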
Reading the numbers: BNIP3L mRNA: higher = more BNIP3L transcript after knockdown; NDRG1 mRNA: higher = more NDRG1 transcript after knockdown; BNIP3 mRNA: higher = more BNIP3 transcript after knockdown; ALDOC mRNA: higher = more ALDOC transcript after knockdown; ACSL5 mRNA: higher = more ACSL5 transcript after knockdown
In all, the deposit lists about 14,000 reagents; shown is a random part of them. Reagents against one gene are numbered here. Not given: the time to read-out.

gene symbol	pool no.	BNIP3L mRNA, set 1	NDRG1 mRNA, set 1	BNIP3 mRNA, set 1	ALDOC mRNA, set 1	ACSL5 mRNA, set 1
RAD54B (RAD54 homolog B)	1	0.0928	0.148	0.268	0.0981	0.16
RAD54B (RAD54 homolog B)	2	0.0583	0.122	0.337	0.02	0.131
PARVA (parvin alpha)	1	0.127	0.188	0.237	0.00987	0.309
NECTIN4 (nectin cell adhesion molecule 4)	1	0.0924	0.298	0.276	0.00478	0.306
HPF1 (histone PARylation factor 1)	1	0.154	0.216	0.309	0.0583	0.199
KHDC4 (KH domain containing 4, pre-mRNA splicing factor)	1	0.0909	0.162	0.355	0.0187	0.0841
FCGR3B (Fc gamma receptor IIIb)	1	0.035	1.06	0.217	0.0106	0.239
MDFI (MyoD family inhibitor)	1	0.134	0.244	0.29	0.0225	0.164
ZNF274 (zinc finger protein 274)	1	0.0899	0.612	0.259	0.00953	0.214
HAS1 (hyaluronan synthase 1)	1	0.31	0.284	0.413	0.01	0.284
FLT3 (fms related receptor tyrosine kinase 3)	1	0.191	0.39	0.5	0.0282	0.535
STAT3 (signal transducer and activator of transcription 3)	1	0.187	0.37	0.618	0.0494	0.153
VCF1 (VCP nuclear cofactor family member 1)	1	0.134	0.355	0.537	0.0543	0.125
ADI1 (acireductone dioxygenase 1)	1	0.156	0.206	0.32	0.0415	0.159
ATP5PF (ATP synthase peripheral stalk subunit F6)	1	0.0766	0.282	0.347	0.0216	0.224
KLHL25 (kelch like family member 25)	1	0.104	0.148	0.308	0.0152	0.155
PPP2R1A (protein phosphatase 2 scaffold subunit Aalpha)	1	0.0602	0.103	0.189	0.00841	0.128
RAD52 (RAD52 DNA repair protein)	1	0.0865	0.0882	0.308	0.0265	0.137
ALDOB (aldolase, fructose-bisphosphate B)	1	0.128	0.155	0.294	0.0339	0.249
MRM1 (mitochondrial rRNA methyltransferase 1)	1	0.159	0.319	0.209	0.0512	0.201
ACTRT1 (actin related protein T1)	1	0.199	0.588	0.328	0.0222	0.156
CAPN9 (calpain 9)	1	0.175	0.154	0.271	0.0124	0.111
CYTL1 (cytokine like 1)	1	0.0503	0.098	0.18	0.0134	0.215
MMP24 (matrix metallopeptidase 24)	1	0.0987	0.485	0.287	0.0256	0.259
ERG28 (ergosterol biosynthesis 28 homolog)	1	0.0844	0.281	0.214	0.0144	0.222
DCC (DCC netrin 1 receptor)	1	0.07	0.179	0.249	0.0241	0.115

Targets listed so far whose gene name begins with C or c:
gene symbol	pool no.	BNIP3L mRNA, set 1	NDRG1 mRNA, set 1	BNIP3 mRNA, set 1	ALDOC mRNA, set 1	ACSL5 mRNA, set 1
CAPN9 (calpain 9)	1	0.175	0.154	0.271	0.0124	0.111
CYTL1 (cytokine like 1)	1	0.0503	0.098	0.18	0.0134	0.215

The list goes on:
gene symbol	pool no.	BNIP3L mRNA, set 1	NDRG1 mRNA, set 1	BNIP3 mRNA, set 1	ALDOC mRNA, set 1	ACSL5 mRNA, set 1
GABARAPL2 (GABA type A receptor associated protein like 2)	1	0.0514	0.243	0.231	0.0425	0.13
TNPO3 (transportin 3)	1	0.11	0.101	0.466	0.0146	0.354
L1TD1 (LINE1 type transposase domain containing 1)	1	0.0879	0.0268	0.225	0.0207	0.0958
PATJ (PATJ crumbs cell polarity complex component)	1	0.0284	0.14	0.207	0.0161	0.122
KLK8 (kallikrein related peptidase 8)	1	0.0597	0.377	0.232	0.0146	0.121
IFT74 (intraflagellar transport 74)	1	0.0455	0.428	0.18	0.0139	0.298
FH (fumarate hydratase)	1	0.102	0.107	0.277	0.0194	0.176
CD72 (CD72 molecule)	1	0.0628	0.168	0.257	0.0173	0.195
SEZ6L2 (seizure related 6 homolog like 2)	1	0.087	0.114	0.381	0.0225	0.123
FBXL7 (F-box and leucine rich repeat protein 7)	1	0.0629	0.199	0.236	0.0148	0.142
BAHD1 (bromo adjacent homology domain containing 1)	1	0.197	0.111	0.278	0.0164	0.0808
KCTD15 (potassium channel tetramerization domain containing 15)	1	0.274	0.32	0.251	0.0161	0.285
APOC1 (apolipoprotein C1)	1	0.21	0.0874	0.293	0.0312	0.135
ZNF385D (zinc finger protein 385D)	1	0.329	0.239	0.331	0.0478	0.34
USP38 (ubiquitin specific peptidase 38)	1	0.0461	0.0725	0.139	0.0165	0.0955
TRAPPC13 (trafficking protein particle complex subunit 13)	1	0.0614	0.121	0.376	0.0269	0.124
ZIC3 (Zic family zinc finger 3)	1	0.0665	0.142	0.241	0.000523	0.213
TAOK1 (TAO kinase 1)	1	0.0928	0.0657	0.451	0.00804	0.166
ITGAX (integrin subunit alpha X)	1	0.0619	0.0988	0.294	0.0309	0.106
SPATA9 (spermatogenesis associated 9)	1	0.135	0.122	0.39	0.0405	0.316
ROCK1 (Rho associated coiled-coil containing protein kinase 1)	1	0.235	0.0589	0.388	0.0102	0.171
NTRK2 (neurotrophic receptor tyrosine kinase 2)	1	0.0708	0.137	0.371	0.0134	0.122
GALR1 (galanin receptor 1)	1	0.0981	0.0987	0.306	0.0325	0.201
PDHA2 (pyruvate dehydrogenase E1 subunit alpha 2)	1	0.088	0.187	0.251	0.0159	0.207
